Experimental findings from publication doi:10.1101/2023.05.11.540447 are described below.

This test deals with Xenopus laevis HAS isoform 1 (hyaluronan synthase 1) (Xenopus laevis) (UniProt P13563). The test is described as follows: SEC + cryo-EM structure.

No constants are given. Whether binding was seen depends on the method and setting.

B1: Xenopus laevis HAS isoform 1 (hyaluronan synthase 1) (enzyme, UniProt P13563 1-588)
chain: MKEKAAETMEIPEGIPKDLEPKHPTLWRIIYYSFGVVLLATITAAYVAEFQVLKHEAILFSLGLYGLAMLLHLMMQSLFAFLEIRRVNKSELPCSFKKTVALTIAGYQENPEYLIKCLESCKYVKYPKDKLKIILVIDGNTEDDAYMMEMFKDVFHGEDVGTYVWKGNYHTVKKPEETNKGSCPEVSKPLNEDEGINMVEELVRNKRCVCIMQQWGGKREVMYTAFQAIGTSVDYVQVCDSDTKLDELATVEMVKVLESNDMYGAVGGDVRILNPYDSFISFMSSLRYWMAFNVERACQSYFDCVSCISGPLGMYRNNILQVFLEAWYRQKFLGTYCTLGDDRHLTNRVLSMGYRTKYTHKSRAFSETPSLYLRWLNQQTRWTKSYFREWLYNAQWWHKHHIWMTYESVVSFIFPFFITATVIRLIYAGTIWNVVWLLLCIQIMSLFKSIYACWLRGNFIMLLMSLYSMLYMTGLLPSKYFALLTLNKTGWGTSGRKKIVGNYMPILPLSIWAAVLCGGVGYSIYMDCQNDWSTPEKQKEMYHLLYGCVGYVMYWVIMAVMYWVWVKRCCRKRSQTVTLVHDIPDMCV
As to B1, the binding entry was “no binding”.
